In this experiment the test system is guinea-pig isolated ileum. Put plainly: morphine-like activity on guinea-pig isolated ileum (inhibition of electrically induced contractions). In kind it is cell-based. To be noted: Cavia porcellus; inhibition of 50% of contraction; electric stimulation 0.1 Hz-0.5 msec. The procedure:
The experiments were carried out according to the method described by Goldstein and Schultz (Br. J. Pharmacol., 48, 655, 1975) which is based on the capacity of the molecules showing an agonist activity on opioid receptors to inhibit the contractions of smooth muscles of guinea-pig ileum induced by electric stimulation (0.1 Hz-0.5 msec.).
The pharmacological activity was expressed as the necessary concentration (mM) to inhibit 50% of contraction (IC50).

This is an account of results in patent US4960788A, “Pyrrolidone-2 compounds and their use for central analgesic activity” (priority 1988, dated 1990).

pIC50: −log10 of the molar value.

One may read the pIC50 as −log10 of the IC50, conventionally taken in molar units. High values mean a small IC50, low ones a large IC50. For `CN1CC[C@]23c4c5ccc(O)c4O[C@H]2[C@@H](O)C=C[C@H]3[C@H]1C5` [morphine, reference compound], the pIC50 is 6.95.
